Source: US20180036364A1 (priority 2015, published 2018)

Assay: peptide synthesis
Details: coupling step

Substance: 2-(tubulysin B)hydrazinecarboxylic acid (3′nitropyridyl-2′-yl)disulfanylethyl ester
- step yield: 89% yield
